Where a name gives a salt, the structure may show the parent alone. At least one compound was matched to its structure with a doubt left.
Assay: Hygroscopicity of solid
Type: physicochemical
Details: solid after standing overnight in air

## O=[N+]([O-])c1cc(C(F)(F)F)cc2c1NC(O)(C(F)(F)F)N2 (stereo not shown) [Example 3, 2-Hydroxy-2,6-Bis(Trifluoromethyl)-4-Nitrobenzimidazoline, Sodium Salt, Monohydrate]
  hygroscopicity: not hygroscopic

Reference: patent US4265901A, “2-Oxybenzimidazoline compounds” (priority 1979, dated 1981)
